The experiment can be described thus: Inhibition of HAP dissolution (calcium in supernatant by ICP). Type of experiment: physicochemical. As to conditions: compound 1 mM; supersaturated calcium phosphate, 0.05 M Tris pH 7.4, 37° C., 24 h. Here is the method:
As a result, HAP affinity tests are the most common in vitro tests for bone-seeking properties of new compounds. The current, novel, BP-containing monomers and nanoparticles were assayed for inhibition of HAP dissolution, in comparison to alendronate.
The test based on a slightly modified method of Francis et al. (Francis, M. D. The inhibition of calcium hydroxyapatite crystal growth by polyphosphonates and polyphosphates. Calcif Tissue Res 1969, 3, 151-162). The extent of HAP formation in the presence of inhibitors was studied in supersaturated calcium phosphate solutions.
The final concentration of calcium (CaCl2.2H2O) and phosphate (K2HPO4) ions in the incubation solutions was 3.87 mM and 2.32 mM, respectively, yielding a molar ratio of [Ca]/[PO4]=1.67, as in hydroxyapatite (HAP). Each salt solution was prepared in 0.05 M Tris buffer, pH 7.4. The tested BP compound (1 mM) was dissolved in […]. 5 ml of 7.74 mM CaCl2.2H2O solution containing the BP compound and 5 ml of the 4.64 mM K2HPO4 were mixed in borosilicate glass vials (acid and acetone washed). The vials were then placed in a shaker at 37° C. for 24 h. The vials contents were centrifuged (4 min, 4000 rpm) and the supernatants were then separated and analyzed for calcium concentration by ICP Analysis.

For `NCCCC(O)(P(=O)(O)O)P(=O)(O)O` [Alendronate, reference compound], the “Calcium ions concentration in filtrate (% of initial concentration)” value is 35 % of initial concentration.

The values above are taken from patent US10508126B2, “Bisphosphonates vinylic monomers and polymers and uses thereof” (BAR-ILAN UNIVERSITY, priority 2012, dated 2019).
